# Data: PubChem BioAssay AID540256 (National Center for Advancing Translational Sciences (NCATS), 2011)
# Out of some 300,000 compounds screened, about 3,700 (1.2%) were called active. Inconclusive means that the source gave no clear call. Such entries were picked first, then a sample of the others. Calls follow the shape of the full dose curve; tested in HEK293 cells. Potencies of inconclusive entries are doubtful fits and often do not repeat.
# Assay: qHTS for Inhibitors of binding or entry into cells for Lassa Virus; also: nearly all actives have a fitted effect of over 50% in size
# Conditions: Lassa virus pseudotype entry inhibition, cell reporter; series mostly up to 37.9 µM
# Potency is read from the fitted curve at half-maximal effect.
row,Structure (SMILES),Potency
1,S=C(Nc1ccccc1)N1N=C(c2cccs2)CC1c1cccs1 (centres undefined),"inconclusive: 35.5 µM [inhibitor, single point]"
2,O=C(CN1C(=O)c2ccccc2C1=O)NCCc1c[nH]c2ccccc12,inactive
3,COc1ccc(S(=O)(=O)N2CCCC2)c2ccccc12,"inconclusive: 7.94 µM [inhibitor, partial curve, poor fit]"
4,CCN(CC)CCCNC(=O)CSc1nc2c(c(C(F)(F)F)n1)CCc1ccccc1-2,"inconclusive: 35.5 µM [inhibitor, single point]"
5,Cc1ccnc(NC(=O)c2ccc(C(=O)c3ccccc3)cc2)c1,active: 2.24 µM
6,CCN=c1scc(C)n1/N=C/c1ccc(O)c(O)c1O,inactive
7,CSc1nnc(C)c(/C=C/Nc2ccc(F)cc2)n1,inactive
8,NCCOc1ccccc1OCCN,"inconclusive: 4.47 µM [inhibitor, partial curve, poor fit]"
9,Cn1c(C(=O)Nc2ccccc2)cc2sccc21,"inconclusive: 20.6 µM [activator, single point]"
10,CC(NC(=O)c1ccc2c(=O)n3c(nc2c1)CCC3)c1ccc(S(N)(=O)=O)cc1 (centres undefined),inactive
11,O=C1CCCC/C1=C\Nc1ccc(Cl)cn1,"inconclusive: 5.8 µM [activator, full curve]"
12,CCOc1ccc(NC(=O)Cn2c(=O)n(CCCCCC(=O)NCc3ccccc3)c(=O)c3sccc32)cc1,inactive
13,CCCCCCCn1c(=N)n(CC(O)c2ccco2)c2ccccc21 (centres undefined),"inconclusive: 11.2 µM [inhibitor, partial curve, poor fit]"
14,COc1cccc(-c2nc(CS(=O)(=O)CC(=O)N3CCN(c4cc(C)ccc4C)CC3)c(C)o2)c1,"inconclusive: 35.5 µM [inhibitor, single point]"
15,CCc1ccc(C2CC(=O)c3c([nH]c(C(=O)OC4CCCC4)c3C)C2)cc1 (centres undefined),inactive
16,Cc1ccc(C(C(=O)NCc2ccco2)N(C(=O)CNC(=O)c2cccs2)c2c(C)cc(C)cc2C)cc1 (centres undefined),"inconclusive: 29.1 µM [inhibitor, single point]"
17,COC(=O)c1ccc(CSC2=NCCS2)cc1,"inconclusive: 0.631 µM [activator, full curve, poor fit]"
18,O=C(Nc1nc2c(F)cc(F)cc2s1)c1ccccn1,active: 7.08 µM
19,COc1ccc(OC)c(C2CC(=O)Nc3c2c(=O)[nH]c2ncnn32)c1 (centres undefined),"inconclusive: 7.94 µM [inhibitor, partial curve, poor fit]"
20,O=C(Cc1cc(C(=O)O)c2ccccc2n1)Nc1ccccc1,"inconclusive: 2.24 µM [inhibitor, partial curve, poor fit]"
21,COc1cnc(-c2ccccn2)nc1Sc1cccc(Cl)c1,"inconclusive: 16.4 µM [inhibitor, partial curve, poor fit]"
22,C/C(=N\NS(=O)(=O)c1ccc(Cl)c([N+](=O)[O-])c1)c1cc2ccccc2o1,"inconclusive: 0.0041 µM [inhibitor, full curve, poor fit]"

# Quoted at random: 3 entries already listed.
row,Structure (SMILES),Potency
17,COC(=O)c1ccc(CSC2=NCCS2)cc1,"inconclusive: 0.631 µM [activator, full curve, poor fit]"
4,CCN(CC)CCCNC(=O)CSc1nc2c(c(C(F)(F)F)n1)CCc1ccccc1-2,"inconclusive: 35.5 µM [inhibitor, single point]"
11,O=C1CCCC/C1=C\Nc1ccc(Cl)cn1,"inconclusive: 5.8 µM [activator, full curve]"

# (further entries)

row,Structure (SMILES),Potency
1,Cc1oc(-c2cccc(Cl)c2)nc1CN1CCCC(C(=O)NCCCN2CCOCC2)C1 (centres undefined),inactive
2,C=CCn1c(C)nnc1SCC(=O)Nc1cc(S(=O)(=O)N2CCCC2)ccc1Cl,"inconclusive: 12.6 µM [inhibitor, single point]"
3,CC(=O)c1ccc(OCc2cc(C(=O)N(C)Cc3ccccn3)no2)cc1,"inconclusive: 25.1 µM [inhibitor, single point]"
4,Cc1cccc(/C=C/c2onc(C)c2S(=O)(=O)N2CCC(C(=O)N3CCCCC3)CC2)c1,"inconclusive: 3.55 µM [inhibitor, full curve]"
5,CCCCn1cnc2cc(NCc3ccccc3Cl)ccc21,"inconclusive: 35.5 µM [inhibitor, single point]"
6,O=C(CCl)N(C1CCCC1)C1CCS(=O)(=O)C1 (centres undefined),"inconclusive: 35.5 µM [inhibitor, single point]"
7,Cn1c(N)c(C(=O)CSc2nn(-c3ccccc3)c(=S)s2)c(=O)n(C)c1=O,"inconclusive: 2.51 µM [inhibitor, partial curve, poor fit]"
8,Clc1cccc(Cl)c1Cn1cnc2c(N3CCCCCC3)ncnc21,active: 7.3 µM
9,c1ccc(CNc2nc(-c3ccccn3)nc3ccccc23)cc1,"inconclusive: 3.55 µM [inhibitor, single point]"
10,COC(=O)c1cc(Cl)c(NC(=O)c2ccc(C(C)(C)C)cc2)cc1OC,"inconclusive: 29.1 µM [inhibitor, single point]"
11,COc1ccc(CNC(=O)c2cc3cc(OC)ccc3oc2=O)cc1,"inconclusive: 11.2 µM [inhibitor, partial curve]"
12,CC(C)(C)c1cc(C(=O)O)n(Cc2ccc(Cl)cc2Cl)n1,"inconclusive: 35.5 µM [inhibitor, single point]"
13,COc1cc(/C=N/n2cnnc2)ccc1OC(=O)c1ccncc1,"inconclusive: 20.6 µM [activator, partial curve, poor fit]"
14,CCCCN(C)CCCNC(=O)c1cc(-c2cccs2)nc2ccccc12,"inconclusive: 15.8 µM [inhibitor, single point]"
15,Cc1cccc(C)c1-n1c(C)cc(/C=N\NC(=O)CC(=O)NC2CCCCC2)c1C,"inconclusive: 0.126 µM [inhibitor, full curve, poor fit]"
16,CC(=O)N1CCCc2cc(S(=O)(=O)N3CCCC(C(=O)N4CCN(c5ccccc5)CC4)C3)ccc21 (centres undefined),inactive
17,Cc1ccc(S(=O)(=O)n2nc(-c3ccc(Cl)cc3)nc2NCc2ccc(F)cc2)cc1,"inconclusive: 0.562 µM [inhibitor, full curve, poor fit]"
18,COc1ccc(Nc2nc(N)nc(CN3CCC(Cc4ccccc4)CC3)n2)cc1,inactive
19,Cc1ccc(NC(=O)c2ccccc2O)cc1,"inconclusive: 17.8 µM [inhibitor, single point]"
20,COc1ccc(CCNC(=O)CCCN2C(=O)c3ccccc3C2=O)cc1,inactive
21,Cc1cccc(OCC(=O)NC2CCCCCC2)c1C,inactive
22,COc1ccc(Nc2oc(COc3ccc(OC)cc3)nc2C#N)cc1,"inconclusive: 23.1 µM [inhibitor, partial curve, poor fit]"
